According to paper PMC8326510:
No constants are given. Whether binding was seen depends on the method and setting. Binding seen in cells or lysates may run through a third protein. Some results given as binding are weak or reduced against the parent protein; the word gives no strength.

By UniProt entry, the sequences of proteins in these tests, tags left out. Residues count along the entry.
UniProt P37173, residues 23-567: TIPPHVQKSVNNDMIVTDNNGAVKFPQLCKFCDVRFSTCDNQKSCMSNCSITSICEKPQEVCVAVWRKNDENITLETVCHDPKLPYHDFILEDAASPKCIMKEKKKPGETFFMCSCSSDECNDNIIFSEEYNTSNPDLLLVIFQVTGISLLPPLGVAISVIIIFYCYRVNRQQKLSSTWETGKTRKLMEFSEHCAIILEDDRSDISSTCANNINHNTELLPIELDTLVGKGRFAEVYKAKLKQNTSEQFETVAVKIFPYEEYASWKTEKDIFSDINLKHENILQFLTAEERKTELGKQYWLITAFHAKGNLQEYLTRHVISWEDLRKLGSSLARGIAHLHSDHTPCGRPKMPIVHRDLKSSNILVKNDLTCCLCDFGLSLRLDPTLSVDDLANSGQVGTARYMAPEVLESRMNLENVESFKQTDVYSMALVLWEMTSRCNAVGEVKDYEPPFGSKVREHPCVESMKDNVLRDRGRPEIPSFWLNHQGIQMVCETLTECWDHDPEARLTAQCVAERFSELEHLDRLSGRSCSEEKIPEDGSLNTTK
UniProt Q8TCU6: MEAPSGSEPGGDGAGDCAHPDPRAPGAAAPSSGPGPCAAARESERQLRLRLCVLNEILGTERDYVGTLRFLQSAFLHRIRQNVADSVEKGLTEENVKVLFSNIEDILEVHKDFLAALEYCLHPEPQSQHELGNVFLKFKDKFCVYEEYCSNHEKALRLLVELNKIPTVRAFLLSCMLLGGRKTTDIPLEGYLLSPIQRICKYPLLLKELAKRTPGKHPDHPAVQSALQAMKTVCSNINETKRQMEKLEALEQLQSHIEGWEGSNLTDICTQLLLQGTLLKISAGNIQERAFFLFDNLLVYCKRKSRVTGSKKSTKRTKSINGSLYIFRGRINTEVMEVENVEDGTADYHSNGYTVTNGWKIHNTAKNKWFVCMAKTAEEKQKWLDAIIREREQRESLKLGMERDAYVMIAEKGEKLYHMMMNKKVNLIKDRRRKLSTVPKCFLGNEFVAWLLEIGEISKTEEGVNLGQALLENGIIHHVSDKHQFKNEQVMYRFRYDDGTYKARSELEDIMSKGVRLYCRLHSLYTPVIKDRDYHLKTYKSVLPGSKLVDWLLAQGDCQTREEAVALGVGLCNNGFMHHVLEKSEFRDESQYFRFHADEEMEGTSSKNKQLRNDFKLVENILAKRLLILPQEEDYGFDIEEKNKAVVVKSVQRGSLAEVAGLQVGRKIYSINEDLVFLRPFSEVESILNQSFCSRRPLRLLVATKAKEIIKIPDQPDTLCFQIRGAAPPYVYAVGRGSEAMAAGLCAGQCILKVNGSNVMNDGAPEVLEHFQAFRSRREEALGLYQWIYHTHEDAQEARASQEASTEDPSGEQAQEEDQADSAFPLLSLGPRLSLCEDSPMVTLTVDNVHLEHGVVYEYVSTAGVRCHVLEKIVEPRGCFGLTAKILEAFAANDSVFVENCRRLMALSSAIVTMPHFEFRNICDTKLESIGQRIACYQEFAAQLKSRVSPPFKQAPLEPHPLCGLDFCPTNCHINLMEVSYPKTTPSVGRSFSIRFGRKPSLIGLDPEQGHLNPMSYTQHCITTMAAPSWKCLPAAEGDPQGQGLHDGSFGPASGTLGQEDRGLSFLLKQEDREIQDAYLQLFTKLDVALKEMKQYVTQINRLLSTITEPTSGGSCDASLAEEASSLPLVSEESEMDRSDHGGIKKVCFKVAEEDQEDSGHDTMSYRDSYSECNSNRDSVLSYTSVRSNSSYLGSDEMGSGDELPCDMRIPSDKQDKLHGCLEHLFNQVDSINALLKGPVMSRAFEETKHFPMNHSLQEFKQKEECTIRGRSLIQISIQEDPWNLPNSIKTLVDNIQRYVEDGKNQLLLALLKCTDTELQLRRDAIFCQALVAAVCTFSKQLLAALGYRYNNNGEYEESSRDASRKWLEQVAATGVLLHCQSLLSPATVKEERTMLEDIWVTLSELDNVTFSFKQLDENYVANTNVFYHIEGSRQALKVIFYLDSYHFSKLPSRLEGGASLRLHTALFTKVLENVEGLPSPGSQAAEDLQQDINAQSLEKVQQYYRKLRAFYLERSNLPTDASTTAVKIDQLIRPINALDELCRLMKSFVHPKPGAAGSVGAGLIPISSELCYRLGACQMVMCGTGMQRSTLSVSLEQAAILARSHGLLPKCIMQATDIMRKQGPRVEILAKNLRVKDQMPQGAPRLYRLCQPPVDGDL
UniProt Q69ZK0: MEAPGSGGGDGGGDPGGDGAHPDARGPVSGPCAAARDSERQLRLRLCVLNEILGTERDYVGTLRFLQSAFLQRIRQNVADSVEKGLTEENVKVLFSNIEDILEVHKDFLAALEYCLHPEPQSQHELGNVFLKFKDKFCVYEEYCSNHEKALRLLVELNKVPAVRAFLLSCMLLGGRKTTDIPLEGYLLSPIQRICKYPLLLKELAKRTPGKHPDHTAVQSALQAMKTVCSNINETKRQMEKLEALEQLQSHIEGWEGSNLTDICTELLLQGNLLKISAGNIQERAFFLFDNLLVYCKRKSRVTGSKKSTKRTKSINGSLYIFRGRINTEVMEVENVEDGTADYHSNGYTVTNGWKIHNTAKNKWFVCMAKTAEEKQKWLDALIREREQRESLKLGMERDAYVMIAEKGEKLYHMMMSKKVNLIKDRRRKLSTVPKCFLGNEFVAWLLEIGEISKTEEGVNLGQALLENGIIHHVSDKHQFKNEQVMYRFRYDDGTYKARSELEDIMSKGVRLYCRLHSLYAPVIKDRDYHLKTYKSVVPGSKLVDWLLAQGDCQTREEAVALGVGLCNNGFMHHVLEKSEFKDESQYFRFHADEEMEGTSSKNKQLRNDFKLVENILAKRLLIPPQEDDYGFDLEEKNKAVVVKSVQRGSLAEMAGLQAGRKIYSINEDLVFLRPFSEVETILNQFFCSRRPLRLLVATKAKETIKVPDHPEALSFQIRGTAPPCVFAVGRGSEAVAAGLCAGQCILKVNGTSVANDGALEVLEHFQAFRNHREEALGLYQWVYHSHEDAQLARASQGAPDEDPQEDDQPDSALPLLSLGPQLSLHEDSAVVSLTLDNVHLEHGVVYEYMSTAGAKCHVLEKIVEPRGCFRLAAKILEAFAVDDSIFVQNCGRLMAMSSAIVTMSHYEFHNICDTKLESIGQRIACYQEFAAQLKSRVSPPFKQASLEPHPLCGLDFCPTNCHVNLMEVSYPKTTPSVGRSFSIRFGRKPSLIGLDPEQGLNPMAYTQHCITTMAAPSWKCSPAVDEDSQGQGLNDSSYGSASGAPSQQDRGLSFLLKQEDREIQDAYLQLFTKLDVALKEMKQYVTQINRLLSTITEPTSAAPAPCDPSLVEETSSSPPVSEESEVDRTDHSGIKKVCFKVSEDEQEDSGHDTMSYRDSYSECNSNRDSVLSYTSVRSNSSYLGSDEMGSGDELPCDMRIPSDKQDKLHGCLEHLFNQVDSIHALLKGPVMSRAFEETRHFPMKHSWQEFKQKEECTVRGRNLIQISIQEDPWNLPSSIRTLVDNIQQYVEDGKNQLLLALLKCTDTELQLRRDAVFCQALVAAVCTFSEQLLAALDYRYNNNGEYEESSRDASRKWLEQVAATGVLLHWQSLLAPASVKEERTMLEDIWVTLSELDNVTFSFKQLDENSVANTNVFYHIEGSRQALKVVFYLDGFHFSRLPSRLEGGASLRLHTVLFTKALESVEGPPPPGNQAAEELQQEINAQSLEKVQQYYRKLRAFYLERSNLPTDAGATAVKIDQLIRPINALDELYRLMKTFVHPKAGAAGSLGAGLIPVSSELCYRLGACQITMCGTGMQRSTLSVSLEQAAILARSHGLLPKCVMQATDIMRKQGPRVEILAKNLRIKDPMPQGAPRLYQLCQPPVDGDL

Key:
GFP-tagged TGFβR2 = GFP-tagged TGFβR2 (UniProt P37173); assay: co-IP; heterologous co-IP: 293T cells co-transfected with AU5-P-Rex1 and TGFβR2-GFP (or vector/GFP), lysed in RIPA buffer 48 h after transfection; immunoprecipitation with anti-AU5 or anti-GFP antibody and Protein A/G PLUS-Agarose overnight at 4°C, five washes, Western blot
[1] = molecular target: T1, endogenous TGFβR2 of mouse lung fibroblasts (mouse (endogenous in mouse lung fibroblasts)) (UniProt Q62312); assay: co-IP; endogenous co-IP: mouse lung fibroblasts stimulated with TGF-β1 (10 ng/ml) or buffer control for a total of 2 h; immunoprecipitation with anti-TGFβR2 antibody and Protein A/G PLUS-Agarose overnight at 4°C, Western blot for P-Rex1
T1 sequence: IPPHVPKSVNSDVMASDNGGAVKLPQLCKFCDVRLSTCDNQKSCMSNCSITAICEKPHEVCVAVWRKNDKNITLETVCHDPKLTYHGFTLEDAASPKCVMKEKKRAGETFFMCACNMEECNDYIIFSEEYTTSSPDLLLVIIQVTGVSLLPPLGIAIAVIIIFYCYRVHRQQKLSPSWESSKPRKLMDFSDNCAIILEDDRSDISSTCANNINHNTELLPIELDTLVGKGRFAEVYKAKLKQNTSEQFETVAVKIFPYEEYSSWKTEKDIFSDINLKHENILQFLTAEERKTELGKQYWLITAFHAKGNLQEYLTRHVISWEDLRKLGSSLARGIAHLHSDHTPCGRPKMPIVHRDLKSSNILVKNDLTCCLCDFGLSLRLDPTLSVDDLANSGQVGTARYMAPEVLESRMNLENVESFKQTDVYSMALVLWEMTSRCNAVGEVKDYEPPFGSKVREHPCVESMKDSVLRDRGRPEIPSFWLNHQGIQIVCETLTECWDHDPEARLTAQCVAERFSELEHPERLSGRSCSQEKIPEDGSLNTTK

| binding (GFP-tagged TGFβR2) | binding [1] | Substance |
| --- | --- | --- |
| binds |  | AU5-tagged human P-Rex1 (from UniProt Q8TCU6 1-1659) |
|  | binds | endogenous P-Rex1 of mouse lung fibroblasts (from UniProt Q69ZK0 1-1650) |
